From the supplement of paper PMC6078165
Values are relative to the signal before dosing, not to a vehicle control; the signal also falls without drug.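 Labels refer to human fibroblasts, largely primary: uterine (C12385, HUF), lung (H6013), bone (Hs27A), adrenal (HADF), skin (WS1), plus mammary HMF and breast cancer-associated Hs343T. Cancer lines are basal-like or mesenchymal-like triple-negative breast cancer. The paper counts as hits responses shifting over 3x the replicate standard deviation. The tissue of the other fibroblasts is not given here.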

System: MDAMB436
Assay: relative JC-1 red fluorescence (viability) vs pre-drug, coculture with fibroblast (fraction); higher = more viable cancer cells
Description: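 JC-1 labelled TNBC cells cocultured 1:1 (1,500 cells each) with CellTrace Violet stained primary or stromal fibroblasts in 384-well plates in FluoroBrite medium, treated with one of 42 anticancer drugs at 0.1, 1, 10 or 100 uM. JC-1 red fluorescence (mitochondrial integrity in cancer cells only) was read by plate reader every 8 h for 72 h. Values are normalised to each well's pre-drug value. The stock of one drug was tenfold lower, so its dose labels may be too high.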

O=C(CCCCCCC(=O)Nc1ccccc1)NO [Vorinostat]
relative JC-1 red fluorescence
Settings	8 h	16 h	24 h	32 h	40 h	48 h	56 h	64 h	72 h
0.1 µM, coculture fibroblast: C12385	0.7867	0.672	0.625	0.537	0.489	0.453	0.438	0.422	0.424
0.1 µM, coculture fibroblast: H6013	0.7515	0.7171	0.7041	0.6915	0.6766	0.7037	0.6733	0.6604	0.6213
0.1 µM, coculture fibroblast: H6019	0.687	0.628	0.579	0.488	0.443	0.419	0.39	0.365	0.34
0.1 µM, coculture fibroblast: H6076	0.694	0.621	0.6049	0.576	0.5705	0.55	0.567	0.556	0.554
0.1 µM, coculture fibroblast: H6231	0.726	0.636	0.6419	0.5548	0.542	0.511	0.493	0.476	0.456
0.1 µM, coculture fibroblast: HADF	0.777	0.685	0.638	0.602	0.571	0.575	0.519	0.502	0.4721
0.1 µM, coculture fibroblast: HCFa	0.739	0.718	0.689	0.659	0.629	0.646	0.588	0.569	0.512
0.1 µM, coculture fibroblast: HCPF	0.753	0.6995	0.697	0.64	0.637	0.606	0.599	0.576	0.569
0.1 µM, coculture fibroblast: HHSteC	0.779	0.775	0.761	0.735	0.73	0.743	0.682	0.655	0.599
0.1 µM, coculture fibroblast: HMF	0.706	0.649	0.603	0.558	0.543	0.505	0.507	0.482	0.474
0.1 µM, coculture fibroblast: HPFa	0.873	0.79	0.754	0.715	0.708	0.713	0.631	0.595	0.516
0.1 µM, coculture fibroblast: HUF	0.823	0.707	0.671	0.598	0.535	0.504	0.482	0.46	0.453
0.1 µM, coculture fibroblast: Hs5	0.7558	0.691	0.665	0.601	0.581	0.551	0.564	0.541	0.537
0.1 µM, coculture fibroblast: Hs27A	0.8318	0.76	0.75923	0.746	0.716	0.7726	0.6744	0.6624	0.58589
0.1 µM, coculture fibroblast: Hs343T	0.746	0.67	0.629	0.571	0.543	0.505	0.483	0.462	0.453
0.1 µM, coculture fibroblast: WS1	0.74	0.651	0.599	0.51	0.466	0.43	0.401	0.377	0.365
1 µM, coculture fibroblast: C12385	0.8076	0.722	–	0.547	0.495	0.473	0.451	0.437	0.432
1 µM, coculture fibroblast: H6013	0.7997	0.7122	0.6722	0.6578	0.639	0.655	0.635	0.627	0.599
1 µM, coculture fibroblast: H6019	0.746	0.647	0.605	0.535	0.494	0.479	0.45	0.427	0.408
1 µM, coculture fibroblast: H6076	0.792	0.672	0.646	0.623	0.611	0.602	0.616	0.62	0.615
1 µM, coculture fibroblast: H6231	0.822	0.734	0.666	0.615	0.574	0.5468	0.536	0.513	0.489
1 µM, coculture fibroblast: HADF	0.822	0.741	0.69	0.674	0.639	0.643	0.598	0.588	0.553
1 µM, coculture fibroblast: HCFa	0.809	0.76	0.703	0.697	0.669	0.671	0.616	0.602	0.55
1 µM, coculture fibroblast: HCPF	0.793	0.706	0.668	0.623	0.598	0.568	0.542	0.524	0.501
1 µM, coculture fibroblast: HHSteC	0.872	0.847	0.77	0.739	0.718	0.723	0.663	0.645	0.597
1 µM, coculture fibroblast: HMF	0.802	0.695	0.614	0.569	0.541	0.511	0.498	0.482	0.469
1 µM, coculture fibroblast: HPFa	0.83	0.756	0.707	0.676	0.661	0.674	0.61	0.596	0.544
1 µM, coculture fibroblast: HUF	0.8448	0.734	0.679	0.607	0.549	0.519	0.488	0.472	0.464
1 µM, coculture fibroblast: Hs5	0.864	0.778	0.7088	0.6518	0.62	0.5756	0.574	0.54	0.531
1 µM, coculture fibroblast: Hs27A	0.789	0.711	0.677	0.677	0.6555	0.693	0.633	0.62	0.562
1 µM, coculture fibroblast: Hs343T	0.785	0.66	0.5719	0.5278	0.5025	0.475	0.4575	0.4448	0.43752
1 µM, coculture fibroblast: WS1	0.8014	0.7016	0.64	0.554	0.511	0.493	0.473	0.452	0.449
10 µM, coculture fibroblast: C12385	0.814	0.676	0.647	0.5435	0.4942	0.4632	0.4444	0.421	0.416
10 µM, coculture fibroblast: H6013	0.8207	0.737	0.726	0.721	0.713	0.745	0.734	0.741	0.723
10 µM, coculture fibroblast: H6019	0.7092	0.648	0.626	0.564	0.553	0.57	0.579	0.597	0.608
10 µM, coculture fibroblast: H6076	0.663	0.556	0.536	0.498	0.494	0.491	0.517	0.526	0.534
10 µM, coculture fibroblast: H6231	0.772	0.68	0.581	0.52	0.494	0.459	0.441	0.428	0.409
10 µM, coculture fibroblast: HADF	0.822	0.717	0.703	0.675	0.672	0.693	0.636	0.637	0.593
10 µM, coculture fibroblast: HCFa	0.788	0.763	0.741	0.699	0.691	0.7147	0.679	0.689	0.656
10 µM, coculture fibroblast: HCPF	0.789	0.635	0.634	0.575	0.547	0.516	0.495	0.475	0.469
10 µM, coculture fibroblast: HHSteC	0.807	0.739	0.716	0.687	0.679	0.704	0.652	0.645	0.614
10 µM, coculture fibroblast: HMF	0.7177	0.5933	0.571	0.525	0.524	0.49	0.512	0.495	0.513
10 µM, coculture fibroblast: HPFa	0.927	0.847	0.816	0.7822	0.7706	0.7961	0.749	–	0.72
10 µM, coculture fibroblast: HUF	0.844	0.715	0.685	0.614	0.575	0.56	0.546	0.547	0.549
10 µM, coculture fibroblast: Hs5	0.77	0.633	0.629	0.578	0.568	0.537	0.558	0.536	0.541
10 µM, coculture fibroblast: Hs27A	0.799	0.7292	0.6872	0.6761	0.6563	0.724	0.6793	0.6913	0.642
10 µM, coculture fibroblast: Hs343T	0.677	0.575	0.5382	0.4905	0.469	0.438	0.439	0.4371	0.449
10 µM, coculture fibroblast: WS1	0.7914	0.669	0.6354	0.535	0.485	0.459	0.441	0.419	0.414
100 µM, coculture fibroblast: C12385	0.822	0.7092	0.708	0.612	0.563	0.536	0.514	0.498	0.497
100 µM, coculture fibroblast: H6013	0.8462	0.717	0.688	0.672	0.643	0.672	0.654	0.656	0.634
100 µM, coculture fibroblast: H6019	0.768	0.667	0.677	0.638	0.636	0.653	0.666	0.691	0.696
100 µM, coculture fibroblast: H6076	0.77599	0.639	0.5774	0.527	0.501	0.493	0.514	0.514	0.529
100 µM, coculture fibroblast: H6231	0.748	0.662	0.6127	0.5702	0.53	0.508	0.496	0.494	0.489
100 µM, coculture fibroblast: HADF	0.829	0.756	0.712	0.685	0.669	0.693	0.653	0.647	0.606
100 µM, coculture fibroblast: HCFa	0.801	0.7	0.663	0.623	0.607	0.631	0.603	0.626	0.5925
100 µM, coculture fibroblast: HCPF	0.758	0.66	0.555	0.5259	0.476	0.445	0.421	0.408	0.396
100 µM, coculture fibroblast: HHSteC	0.831	0.753	0.73	0.697	0.681	0.702	0.647	0.641	0.611
100 µM, coculture fibroblast: HMF	0.761	0.651	0.565	0.537	0.521	0.492	0.497	0.499	0.513
100 µM, coculture fibroblast: HPFa	0.885	0.823	0.78	0.74	0.73	0.742	0.692	0.694	0.653
100 µM, coculture fibroblast: HUF	0.857	0.736	0.701	0.622	0.578	0.564	0.552	0.547	0.551
100 µM, coculture fibroblast: Hs5	0.81	0.701	0.641	0.568	0.5328	0.485	0.487	0.467	0.456
100 µM, coculture fibroblast: Hs27A	0.908	0.848	0.774	0.73	0.68	0.693	0.643	0.629	0.573
100 µM, coculture fibroblast: Hs343T	0.81	0.699	0.592	0.545	0.502	0.466	0.447	0.433	0.44
100 µM, coculture fibroblast: WS1	0.82	0.696	0.6633	0.58024	0.539	0.516	0.5	0.474	0.469
